# Some of the results follow.
# Key:
# Assay in all cases: glycan array binding signal (z-score within array); higher = stronger binding
# Conditions in all cases: glycan notation: IUPAC condensed, linker removed
# [1] = molecular target: Neu5Ac(a2-3)Gal(b1-3)GlcNAc6S
# How it was run: (§1)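 Negative Z-scores can be read as non-binding. The Z-score is calculated within each array and then averaged across arrays of one protein sequence at different concentrations or buffers and across linkers. Arrays, 3228 in all, were curated from the Consortium for Functional Glycomics database and kept only where the protein sequence was available.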
# [2] = molecular target: Neu5Ac(a2-3)Gal(b1-3)[Fuc(a1-4)]GlcNAc
# How it was run: as §1
# [3] = molecular target: Neu5Ac(a2-3)Gal(b1-3)[Fuc(a1-4)]GlcNAc(b1-3)Gal(b1-3)[Fuc(a1-4)]GlcNAc
# How it was run: as §1
# [4] = molecular target: Neu5Ac(a2-3)Gal(b1-3)[Fuc(a1-4)]GlcNAc(b1-3)Gal(b1-4)[Fuc(a1-3)]GlcNAc
# How it was run: as §1
# [5] = molecular target: Neu5Ac(a2-3)Gal(b1-3)[GlcNAc(b1-6)]GalNAc
# How it was run: as §1
# [6] = molecular target: Neu5Ac(a2-3)Gal(b1-3)[Neu5Ac(a2-6)]GalNAc
# How it was run: as §1
# [7] = molecular target: Neu5Ac(a2-3)Gal(b1-3)[Neu5Ac(a2-6)]GlcNAc(b1-3)[Fuc(a1-3)[Gal(b1-4)]GlcNAc(b1-6)]Gal(b1-4)Glc
# How it was run: as §1
# [8] = molecular target: Neu5Ac(a2-3)Gal(b1-3)]Neu5Ac(a2-3)Gal(b1-4)]GlcNAc
# How it was run: as §1
# Neu5Ac(a2-3)Gal(b1-4)Glc = molecular target: Neu5Ac(a2-3)Gal(b1-4)Glc
# How it was run: as §1
# [9] = molecular target: Neu5Ac(a2-3)Gal(b1-4)GlcNAc
# How it was run: as §1
# [10] = molecular target: Neu5Ac(a2-3)Gal(b1-4)GlcNAc(b1-2)Man
# How it was run: as §1
# [11] = molecular target: Neu5Ac(a2-3)Gal(b1-4)GlcNAc(b1-2)Man(a1-3)[GlcNAc(b1-4)][Neu5Ac(a2-3)Gal(b1-4)GlcNAc(b1-2)Man(a1-6)]Man(b1-4)GlcNAc(b1-4)GlcNAc
# How it was run: as §1
# [12] = molecular target: Neu5Ac(a2-3)Gal(b1-4)GlcNAc(b1-2)Man(a1-3)[Neu5Ac(a2-3)Gal(b1-4)GlcNAc(b1-2)Man(a1-6)]Man(b1-4)GlcNAc(b1-4)GlcNAc
# How it was run: as §1
# [13] = molecular target: Neu5Ac(a2-3)Gal(b1-4)GlcNAc(b1-2)Man(a1-3)[Neu5Ac(a2-3)Gal(b1-4)GlcNAc(b1-2)Man(a1-6)]Man(b1-4)GlcNAc(b1-4)[Fuc(a1-6)]GlcNAc
# How it was run: as §1
# [14] = molecular target: Neu5Ac(a2-3)Gal(b1-4)GlcNAc(b1-2)Man(a1-3)[Neu5Ac(a2-6)Gal(b1-4)GlcNAc(b1-2)Man(a1-6)]Man(b1-4)GlcNAc(b1-4)GlcNAc
# How it was run: as §1
# [15] = molecular target: Neu5Ac(a2-3)Gal(b1-4)GlcNAc(b1-2)[Neu5Ac(a2-3)Gal(b1-4)GlcNAc(b1-4)]Man(a1-3)[GlcNAc(b1-4)][Neu5Ac(a2-3)Gal(b1-4)GlcNAc(b1-2)[Neu5Ac(a2-3)Gal(b1-4)GlcNAc(b1-6)]Man(a1-6)]Man(b1-4)GlcNAc(b1-4)GlcNAc
# How it was run: as §1
# [16] = molecular target: Neu5Ac(a2-3)Gal(b1-4)GlcNAc(b1-2)[Neu5Ac(a2-3)Gal(b1-4)GlcNAc(b1-4)]Man(a1-3)[GlcNAc(b1-4)][Neu5Ac(a2-3)Gal(b1-4)GlcNAc(b1-4)Man(a1-6)]Man(b1-4)GlcNAc(b1-4)GlcNAc
# How it was run: as §1
# [17] = molecular target: Neu5Ac(a2-3)Gal(b1-4)GlcNAc(b1-2)[Neu5Ac(a2-3)Gal(b1-4)GlcNAc(b1-6)]Man(a1-6)[Neu5Ac(a2-3)Gal(b1-4)GlcNAc(b1-2)Man(a1-3)][GlcNAc(b1-4)]Man(b1-4)GlcNAc(b1-4)GlcNAc
# How it was run: as §1
# [18] = molecular target: Neu5Ac(a2-3)Gal(b1-4)GlcNAc(b1-3)Gal
# How it was run: as §1
# [19] = molecular target: Neu5Ac(a2-3)Gal(b1-4)GlcNAc(b1-3)Gal(b1-3)GlcNAc
# How it was run: as §1
# [20] = molecular target: Neu5Ac(a2-3)Gal(b1-4)GlcNAc(b1-3)Gal(b1-4)GlcNAc
# How it was run: as §1
# [21] = molecular target: Neu5Ac(a2-3)Gal(b1-4)GlcNAc(b1-3)Gal(b1-4)GlcNAc(b1-2)Man(a1-3)[Neu5Ac(a2-3)Gal(b1-4)GlcNAc(b1-3)Gal(b1-4)GlcNAc(b1-2)Man(a1-6)]Man(b1-4)GlcNAc(b1-4)GlcNAc
# How it was run: as §1
# [22] = molecular target: Neu5Ac(a2-3)Gal(b1-4)GlcNAc(b1-3)Gal(b1-4)GlcNAc(b1-3)Gal(b1-4)GlcNAc
# How it was run: as §1
# [23] = molecular target: Neu5Ac(a2-3)Gal(b1-4)GlcNAc(b1-3)Gal(b1-4)GlcNAc(b1-3)Gal(b1-4)GlcNAc(b1-2)Man(a1-3)[Neu5Ac(a2-3)Gal(b1-4)GlcNAc(b1-3)Gal(b1-4)GlcNAc(b1-3)Gal(b1-4)GlcNAc(b1-2)Man(a1-6)]GalNAc
# How it was run: as §1
# [24] = molecular target: Neu5Ac(a2-3)Gal(b1-4)GlcNAc(b1-3)Gal(b1-4)GlcNAc(b1-3)GalNAc
# How it was run: as §1
# [25] = molecular target: Neu5Ac(a2-3)Gal(b1-4)GlcNAc(b1-3)Gal(b1-4)GlcNAc(b1-3)[Neu5Ac(a2-3)Gal(b1-4)GlcNAc(b1-3)Gal(b1-4)GlcNAc(b1-6)]GalNAc
# How it was run: as §1
# [26] = molecular target: Neu5Ac(a2-3)Gal(b1-4)GlcNAc(b1-3)Gal(b1-4)GlcNAc(b1-6)[Gal(b1-3)]GalNAc
# How it was run: as §1
# [27] = molecular target: Neu5Ac(a2-3)Gal(b1-4)GlcNAc(b1-3)Gal(b1-4)[Fuc(a1-3)]GlcNAc
# How it was run: as §1
# [28] = molecular target: Neu5Ac(a2-3)Gal(b1-4)GlcNAc(b1-3)GalNAc
# How it was run: as §1
# [29] = molecular target: Neu5Ac(a2-3)Gal(b1-4)GlcNAc(b1-3)[Neu5Ac(a2-3)Gal(b1-4)GlcNAc(b1-6)]GalNAc
# How it was run: as §1
binder,measurement,setting,value
"YghJ (Escherichia coli), E3PJ90 (protein) MNKKFKYKKSLLAAILSATLLAGCDGGGSGSSSDTPPVDSGTGSLPEVKPDPTPNPEPTPEPTPDPEPTPEPIPDPEPTPEPEPEPVPTKTGYLTLGGSQRVTGATCNGESSDGFTFKPGEDVTCVAGNTTIATFNTQSEAARSLRAVEKVSFSLEDAQELAGSDDKKSNAVSLVTSSNSCPANTEQVCLTFSSVIESKRFDSLYKQIDLAPEEFKKLVNEEVENNAATDKAPSTHTSPVVPVTTPGTKPDLNASFVSANAEQFYQYQPTEIILSEGRLVDSQGYGVAGVNYYTNSGRGVTGENGEFSFSWGEAISFGIDTFELGSVRGNKSTIALTELGDEVRGANIDQLIHRYSTTGQNNTRVVPDDVRKVFAEYPNVINEIINLSLSNGATLGEGEQVVNLPNEFIEQFNTGQAKEIDTAICAKTDGCNEARWFSLTTRNVNDGQIQGVINKLWGVDTNYKSVSKFHVFHDSTNFYGSTGNARGQAVVNISNAAFPILMARNDKNYWLAFGEKRAWDKNELAYITEAPSIVRPENVTRETASFNLPFISLGQVGDGKLMVIGNPHYNSILRCPNGYSWNGGVNKDGQCTLNSDPDDMKNFMENVLRYLSNDRWLPDAKSSMTVGTNLETVYFKKHGQVLGNSAPFAFHKDFTGITVKPMTSYGNLNPDEVPLLILNGFEYVTQWGSDPYSIPLRADTSKPKLTQQDVTDLIAYMNKGGSVLIMENVMSNLKEESASGFVRLLDAAGLSMALNKSVVNNDPQGYPDRVRQRRSTPIWVYERYPAVDGKPPYTIDDTTKEVIWKYQQENKPDDKPKLEVASWQEEVEGKQVTQFAFIDEADHKTPESLAAAKQRILDAFPGLEVCKDSDYHYEVNCLEYRPGTDVPVTGGMYVPQYTQLDLSADTAKAMLQAADLGTNIQRLYQHELYFRTNGRQGERLNSVDLERLYQNMSVWLWNETKYRYEEGKEDELGFKTFTEFLNCYTNNAYVGTQCSAELKKSLIDNKMIYGEESSKAGMMNPSYPLNYMEKPLTRLMLGRSWWDLNIKVDVEKYPGVVNTNGETVTQNINLYSAPTKWFAGNMQSTGLWAPAQQEVSIESKSTVPVTVTVALADDLTGREKHEVSLNRPPRVTKTYDLKANDKVTFKVPYGGLIYIKGDSKEVQSADFTFTGVVKAPFYKDGKWQHDLNSPAPLGELESASFVYTTPKKNLNASNYTGGLEQFANDLDTFASSMNDFYGRDSEDGKHRMFTYKNLPGHKHRFANDVQISIGDAHSGYPVMNSSFSPNSTTLPTTPLNDWLIWHEVGHNAAETPLTVPGATEVANNVLALYMQDRYLGKMNRVADDITVAPEYLEESNGQAWARGGAGDRLLMYAQLKEWAEKNFDIKKWYPDGTPLPEFYSEREGMKGWNLFQLMHRKARGDEVSNDKFGGKNYCAESNGNAADTLMLCASWVAQTDLSEFFKKWNPGANAYQLPGASEMSFEGGVSQSAYNTLASLDLPKPEQGPETINQVTEHKMSAE",glycan array binding signal (z-score),[1],-0.847
same,glycan array binding signal (z-score),[2],-0.959
same,glycan array binding signal (z-score),[3],0.951
same,glycan array binding signal (z-score),[4],-0.662
same,glycan array binding signal (z-score),[5],-0.567
same,glycan array binding signal (z-score),[6],-0.685
same,glycan array binding signal (z-score),[7],0.46
same,glycan array binding signal (z-score),[8],0.401
same,glycan array binding signal (z-score),Neu5Ac(a2-3)Gal(b1-4)Glc,1.44
same,glycan array binding signal (z-score),[9],-0.721
same,glycan array binding signal (z-score),[10],1.72
same,glycan array binding signal (z-score),[11],-1.36
same,glycan array binding signal (z-score),[12],0.306
same,glycan array binding signal (z-score),[13],0.41
same,glycan array binding signal (z-score),[14],-0.105
same,glycan array binding signal (z-score),[15],-1
same,glycan array binding signal (z-score),[16],-0.172
same,glycan array binding signal (z-score),[17],0.765
same,glycan array binding signal (z-score),[18],0.236
same,glycan array binding signal (z-score),[19],0.515
same,glycan array binding signal (z-score),[20],-0.616
same,glycan array binding signal (z-score),[21],1.37
same,glycan array binding signal (z-score),[22],-1.24
same,glycan array binding signal (z-score),[23],2.64
same,glycan array binding signal (z-score),[24],0.399
same,glycan array binding signal (z-score),[25],1.36
same,glycan array binding signal (z-score),[26],-0.708
same,glycan array binding signal (z-score),[27],-1.22
same,glycan array binding signal (z-score),[28],-1.07
same,glycan array binding signal (z-score),[29],0.068
